Laboratory results from patent US20090026122A1, “BIOCOMPATIBLE SOLID-PHASE MICROEXTRACTION COATINGS AND METHODS FOR THEIR PREPARATION” (Janusz, priority 2002, published 2009).

Experiment: Biocompatibility of coatings by XPS, atomic composition before and after exposure to human plasma
Conditions: XPS atomic composition of the reference protein itself

In the case of Fibrinogen, the “C % (RSD < 5%)” value is reported as 62.8%, the “N % (RSD < 5%)” value is reported as 18.0% and the “O % (RSD < 10%)” value is reported as 18.8%. The “S % (RSD < 15%)” value was 0.5%.
